Values quoted from earlier work as cited in US20170014417A1, “PHARMACEUTICAL ADMINISTRATION SYSTEM FOR THE TRANSDERMAL APPLICATION OF VARDENAFIL” (LIPP LIFE SCIENCES LLC, priority 2015, published 2017).
At least one structure is not confirmed: it was looked up by name or label, or the drawing left a doubt.

System: testosterone deficient men who did not respond to testosterone undecanoate alone
Details: oral on demand, adjunctive to intramuscular testosterone undecanoate in 3 month intervals; cited from earlier work

In the case of `CCCc1nc(C)c2c(=O)[nH]c(-c3cc(S(=O)(=O)N4CCN(CC)CC4)ccc3OCC)nn12` [vardenafil], the “scores on the International Index of Erectile Function Questionnaire-five items” value is given as “improved the scores”.
